In patent US20230332252A1, “CELL-FREE BIOSENSORS WITH DNA STRAND DISPLACEMENT CIRCUITS AND POLYMERASE STRAND RECYCLING (PSR)” (Northwestern University, priority 2021, published 2023):
At least one compound was matched to its structure with a doubt left.

The chains behind the UniProt entries cited, without tags or fusion partners. A line that says so, or that is headed by a name, gives the form on record, which may keep a tag or linker.
UniProt P04483, other isoform, or with tags, fused parts or gaps: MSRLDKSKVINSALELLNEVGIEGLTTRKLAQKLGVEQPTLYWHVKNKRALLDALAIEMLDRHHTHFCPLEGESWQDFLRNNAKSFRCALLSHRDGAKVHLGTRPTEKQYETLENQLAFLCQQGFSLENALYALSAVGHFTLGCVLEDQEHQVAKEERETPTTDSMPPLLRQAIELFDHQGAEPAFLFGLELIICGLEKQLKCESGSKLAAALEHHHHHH

Experiments:
TetR [1] = target: T1, TetR (Escherichia coli, UniProt P04483); assay: Tetracycline-inducible (TetR-regulated) RNA NOT gate circuit; format: biochemical; settings: 100 nM NOT gate template, 25 nM InvadeR template, 20 tetracycline
T1 construct: made in house; host or cells: E. coli Rosetta 2(DE3)pLysS, pET-28c backbone (pJBL701)

TetR [2] = target: T1, TetR; format: biochemical; settings: TetR-regulated reaction induced with ligand

CN(C)[C@@H]1C(O)=C(C(N)=O)C(=O)[C@@]2(O)C(O)=C3C(=O)c4c(O)cccc4[C@@](C)(O)[C@H]3C[C@@H]12 [tetracycline]
signal change in NOT gate in the presence of ligand (TetR [1]): significant signal reduction | time until fluorescent signal is visible (TetR [2]): ~10 min
